Reference: patent publication US4590166A, “Method for separating and measuring the amount of polar compounds and their metabolites in aqueous solutions” (priority 1983, dated 1986)

How the values were obtained:
[1] = recovery of pyridostigmine bromide from glass cartridges containing Corasil II and Sep-Pak C18-silica; details: for Acetate-methanol (1 ml), first / Acetate-methanol (1 ml), second / Acetate-methanol (1 ml), third / Methanol wash (5 ml) / Sample eluate (5 ml) / Water wash (5 ml): 45 μg added
[2] = recovery of pyridostigmine bromide added to human plasma (Sep-Pak/LC); details: for Pyridostigmine found: 5 ml human plasma, average of 3 determinations; for Recoveries from plasma: human plasma
[3] = recovery of pyridostigmine from aqueous salt solutions by Sep-Pak and LC (influence of inorganic ions)
[4] = phosphate buffer, 58.2 μg added
[5] = sodium bromide solution, 58.8 μg added
[6] = sodium chloride solution, 59.2 μg added

CN(C)C(=O)Oc1ccc[n+](C)c1 [pyridostigmine]
% Recovery ([1]; Corasil II (aqueous)): 2% | Acetate-methanol (1 ml), first ([1]; Corasil II (aqueous)): 0 µg | Acetate-methanol (1 ml), second ([1]; Corasil II (aqueous)): 0.4 µg | Acetate-methanol (1 ml), third ([1]; Corasil II (aqueous)): 0.6 µg | Methanol wash (5 ml) ([1]; Corasil II (aqueous)): 0 µg | Sample eluate (5 ml) ([1]; Corasil II (aqueous)): 0 µg | Water wash (5 ml) ([1]; Corasil II (aqueous)): 0 µg | % Recovery ([1]; Corasil II (pH 10.5)): 30% | Acetate-methanol (1 ml), first ([1]; Corasil II (pH 10.5)): 6.8 µg | Acetate-methanol (1 ml), second ([1]; Corasil II (pH 10.5)): 4.1 µg | Acetate-methanol (1 ml), third ([1]; Corasil II (pH 10.5)): 2.6 µg | Methanol wash (5 ml) ([1]; Corasil II (pH 10.5)): 0 µg | Sample eluate (5 ml) ([1]; Corasil II (pH 10.5)): 0 µg | Water wash (5 ml) ([1]; Corasil II (pH 10.5)): 0.5 µg | % Recovery ([1]; Sep-Pak (pH 10.5)): 103% | Acetate-methanol (1 ml), first ([1]; Sep-Pak (pH 10.5)): 31.8 µg | Acetate-methanol (1 ml), second ([1]; Sep-Pak (pH 10.5)): 12.7 µg | Acetate-methanol (1 ml), third ([1]; Sep-Pak (pH 10.5)): 1.7 µg | Methanol wash (5 ml) ([1]; Sep-Pak (pH 10.5)): 0.4 µg | Sample eluate (5 ml) ([1]; Sep-Pak (pH 10.5)): 0.2 µg | Water wash (5 ml) ([1]; Sep-Pak (pH 10.5)): 0.9 µg | Pyridostigmine found ([2]; 39 ng/ml added): 35 ng/mL | Pyridostigmine found ([2]; 78 ng/ml added): 71 ng/mL | Pyridostigmine found ([2]; 100 ng/ml added): 107 ng/mL | Pyridostigmine found ([2]; 156 ng/ml added): 153 ng/mL | Pyridostigmine found ([2]; 313 ng/ml added): 305 ng/mL | Pyridostigmine found ([2]; 400 ng/ml added): 390 ng/mL | Pyridostigmine found ([2]; 625 ng/ml added): 625 ng/mL | Pyridostigmine found ([2]; 1250 ng/ml added): 1312 ng/mL | Pyridostigmine found ([2]; 4000 ng/ml added): 4330 ng/mL | Recoveries from plasma ([2]; 40-100 ng/ml level): 90-95% | Recoveries from plasma ([2]; 100-5000 ng/ml level): 95-100% | isolation and quantitation in aqueous sodium hydroxide and sodium carbonate ([3]; pH 10-10.5): quantitative and nearly quantitative | recovery from aqueous solutions (not urine) ([3]; pH values 8-9.5): can be recovered quantitatively | % Recovery, acetate-methanol ([3]; phosphate buffer): 101.7% | % Recovery, total ([3]; phosphate buffer): 101.9% | Acetate-methanol (1 ml), first [3, 4]: 57.1 µg | Acetate-methanol (1 ml), second [3, 4]: 2.2 µg | Alcohol wash (5 ml) [3, 4]: 0 µg | Sample eluate (3 ml) [3, 4]: 0 µg | Water wash (5 ml) [3, 4]: 0 µg | % Recovery, acetate-methanol ([3]; sodium bromide solution): 38.1% | % Recovery, total ([3]; sodium bromide solution): 82.1% | Acetate-methanol (1 ml), first [3, 5]: 18.7 µg | Acetate-methanol (1 ml), second [3, 5]: 3.7 µg | Alcohol wash (5 ml) [3, 5]: 25.9 µg | Sample eluate (3 ml) [3, 5]: 0 µg | Water wash (5 ml) [3, 5]: 0 µg | % Recovery, acetate-methanol ([3]; sodium chloride solution): 46.3% | % Recovery, total ([3]; sodium chloride solution): 103.1% | Acetate-methanol (1 ml), first [3, 6]: 23.4 µg | Acetate-methanol (1 ml), second [3, 6]: 4.0 µg | Alcohol wash (5 ml) [3, 6]: 30.9 µg | Sample eluate (3 ml) [3, 6]: 1.6 µg | Water wash (5 ml) [3, 6]: 1.7 µg
